Screening data, single-dose tests

By UniProt entry, the sequences of proteins in these tests, tags left out. Residues count along the entry.
UniProt P9WFT3, whole entry: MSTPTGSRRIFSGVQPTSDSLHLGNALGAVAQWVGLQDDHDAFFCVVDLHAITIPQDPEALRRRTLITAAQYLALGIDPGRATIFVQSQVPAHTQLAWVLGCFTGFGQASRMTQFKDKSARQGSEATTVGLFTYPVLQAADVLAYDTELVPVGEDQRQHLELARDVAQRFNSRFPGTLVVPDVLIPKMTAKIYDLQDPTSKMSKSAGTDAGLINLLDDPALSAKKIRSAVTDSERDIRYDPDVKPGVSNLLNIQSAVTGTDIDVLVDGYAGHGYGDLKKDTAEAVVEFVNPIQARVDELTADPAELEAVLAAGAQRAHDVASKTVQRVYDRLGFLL
UniProt P9WPC5, whole entry: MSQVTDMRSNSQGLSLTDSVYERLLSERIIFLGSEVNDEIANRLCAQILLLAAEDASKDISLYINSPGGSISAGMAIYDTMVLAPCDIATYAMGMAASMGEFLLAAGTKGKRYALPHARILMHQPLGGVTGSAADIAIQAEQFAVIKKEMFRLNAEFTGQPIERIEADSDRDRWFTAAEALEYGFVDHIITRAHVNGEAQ
UniProt P9WPC3, whole entry partner: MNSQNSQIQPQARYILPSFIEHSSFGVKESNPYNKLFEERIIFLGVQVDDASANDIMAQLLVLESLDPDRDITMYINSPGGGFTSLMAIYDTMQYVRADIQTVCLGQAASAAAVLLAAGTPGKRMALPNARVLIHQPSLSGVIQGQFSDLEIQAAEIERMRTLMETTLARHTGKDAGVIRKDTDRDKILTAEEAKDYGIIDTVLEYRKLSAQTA
UniProt Q4DA54, 1-478: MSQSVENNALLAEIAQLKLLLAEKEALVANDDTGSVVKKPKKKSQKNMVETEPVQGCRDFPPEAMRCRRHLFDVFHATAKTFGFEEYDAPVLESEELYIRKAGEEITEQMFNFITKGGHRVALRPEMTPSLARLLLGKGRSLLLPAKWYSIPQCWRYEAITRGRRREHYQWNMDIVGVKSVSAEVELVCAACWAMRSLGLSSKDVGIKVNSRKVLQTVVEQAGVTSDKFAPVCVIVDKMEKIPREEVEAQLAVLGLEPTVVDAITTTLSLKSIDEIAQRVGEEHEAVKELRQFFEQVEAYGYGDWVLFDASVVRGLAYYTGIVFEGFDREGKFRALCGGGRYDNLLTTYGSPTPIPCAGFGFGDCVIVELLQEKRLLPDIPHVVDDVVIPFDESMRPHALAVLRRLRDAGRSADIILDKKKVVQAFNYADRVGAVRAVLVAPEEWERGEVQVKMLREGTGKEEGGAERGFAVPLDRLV

Values are the deposited “Percent Effect”, in %.
The controls that fix the scale are not given in the record; negative values are as filed.
The compounds are a random part of those screened.

MtTrpRS: 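Tryptophan-tRNA ligase, Mycobacterium tuberculosis (UniProt P9WFT3). Enzyme assay of tryptophanyl-tRNA synthetase; the read-out is not stated. Tested at 10 µM. Higher most likely means stronger inhibition; the record gives no direction and few retests gave an IC50. About 65,000 compounds were tested under these conditions; 0.098% (about 64) showed 50% or more at least once.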
ClpP1P2: 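ClpP1P2, Mycobacterium tuberculosis (UniProt P9WPC5 and UniProt P9WPC3). Protease assay of ClpP1P2, read by the AMC dye that it sets free. Tested at 50 µM. Higher reads as stronger inhibition, judged from the few compounds that gave an IC50. Most other retested compounds had strongly negative values. Of about 69,000 compounds tested this way, about 10 (0.015%) reached 50% or more in at least one test.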
TcHisRS: 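Histidine-tRNA ligase, Trypanosoma cruzi CL Brener (UniProt Q4DA54). Enzyme assay of histidyl-tRNA synthetase; the read-out is not stated. Tested at 30 µM. Higher reads as stronger inhibition (inferred: compounds with an IC50 in retests scored well above the rest). Size under these conditions: about 69,000 compounds, about 31 of them at 50% or above in at least one test.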

| compound | MtTrpRS | ClpP1P2 | TcHisRS |
|---|---|---|---|
| `Cc1nc(CNC(=O)CCN2CCN(c3ccccc3)CC2)oc1C` | -3.187% | -5.176% | 3.03% |
| `O=C(COCc1nc(-c2ccncc2)no1)N1CCCCC1` | 2.294% | -0.07167% | -0.8772% |
| `CN(CCCC#N)C1CCCN(Cc2noc(C3CC3)n2)C1` (centres unmarked) | 6.825% | 10.83% | 0.813% |
| `Cc1csc2c(N3CCNC(C(=O)N4CCCC4)C3)ncnc12` (centres unmarked) | -0.161% | 0.6792% | -21.6% |
| `CSCCCN1CCCC(Cn2ccnc2)C1` (centres unmarked) | 1.871% | -1.265% | 0% |
| `Cc1cc(C(F)(F)F)c2c(=O)n(Cc3cc(C)on3)n(C)c2n1` | -1.117% | 2.974% | 0.4425% |
| `CNS(=O)(=O)c1ccc(C(=O)N2CCCC2c2ccncc2)o1` (centres unmarked) | -6.236% | -28.58% | 2.312% |
| `CC(C)Cc1ncc(CNc2cnccc2CO)s1` | -1.025% | -0.1938% | 1.463% |
| `O=C(NCC1(c2ccc(F)cc2)CCC1)N1CCC2(C1)OCCO2` | -0.1875% | -2.992% | -1.01% |
| `COc1cccc(C(=O)NCc2ccccc2S(=O)(=O)N(C)CCO)c1` | -1.687% | 0.918% | 1.064% |
| `Cn1ncc2c(N3CCCN(C(=O)c4ccsc4)CC3)ncnc21` | -6.361% | -2.74% | 4.651% |
| `COCc1cc(NCc2ccccc2OC)ncn1` | 4.334% | -4.434% | 6.579% |
| `O=C(C1CCOCC1)N1CCN2C(=O)N(Cc3ccc(F)cc3)C[C@H]2C1` | 0.2259% | -11.81% | 10.89% |
| `CCc1noc(CNc2cccc(C(=O)N3CCSCC3)c2)n1` | -6.706% | -4.761% | 9.091% |
| `CC(C)Oc1ccc(CN2CCCC(N3CCCC3)C2)cc1CO` (centres unmarked) | 11.65% | -4.896% | 6.931% |
| `O=C1NCC2CN(Cc3ccccc3OCc3ccccn3)CCN12` (centres unmarked) | 0.3291% | 1.35% | -1.026% |
| `C=C(C)CN1CCC(NC(=O)NCCc2cccc(C(N)=O)c2)CC1` | -5.732% | -9.01% | 3.941% |
| `Cc1ccc(-c2nc(CN3CCOC(c4ccccc4)C3)cs2)o1` (centres unmarked) | 4.257% | -44.14% | 5% |
| `Cc1ccsc1CN1CC2(CCN(C(=O)C3CC3)CC2)CC1C(=O)O` (centres unmarked) | 9.96% | -7.612% | -0.5236% |
| `COC(=O)COc1cc(NCc2c(C)noc2C)c(Cl)cc1C` | -3.406% | -7.468% | -2.762% |
| `CN(Cc1cc(-c2cccnc2)no1)C(=O)C1CCCN1S(C)(=O)=O` (centres unmarked) | 0.6192% | 5.592% | 5.263% |
| `CN1C(=O)Cc2cc(-c3csc(CCN4CCOC4=O)n3)ccc21` | 14.67% | -18.59% | 2.882% |
| `Cc1cc(C)n(CC2CN(Cc3nc(C)c(C)o3)CCO2)n1` (centres unmarked) | 0.05679% | -29.32% | 3.704% |

The first 2 entries again:

compound,MtTrpRS,ClpP1P2,TcHisRS
Cc1nc(CNC(=O)CCN2CCN(c3ccccc3)CC2)oc1C,-3.187%,-5.176%,3.03%
O=C(COCc1nc(-c2ccncc2)no1)N1CCCCC1,2.294%,-0.07167%,-0.8772%

Source: ChEMBL document CHEMBL3988442, “University of Dundee, Small-Polar-MMV Screening Library” (2021).